This series is described as follows: Efflux ratio of apparent permeability across basolateral to apical side over apical to basolateral side in human Caco-2 cells incubated for 180 mins by LC/MS/MS analysis. It counts as ADME, cell-based. On the technique in general: Caco-2 monolayers are a common model of the intestinal barrier.

The efflux ratio is a quotient of directional permeabilities that is used to spot active efflux.

On to `C[C@H]1O[C@@H](O[C@H]2[C@@H](O)C[C@H](O[C@H]3[C@@H](O)C[C@H](O[C@H]4CC[C@@]5(C)[C@H](CC[C@@H]6[C@@H]5C[C@@H](O)[C@]5(C)[C@@H](C7=CC(=O)OC7)CC[C@]65O)C4)O[C@@H]3C)O[C@@H]2C)C[C@H](O)[C@@H]1O` [DIGOXIN], for which the efflux ratio at 3 h came to 938.

(Values after ChEMBL document CHEMBL5346862, “Discovery of the thieno[2,3-d]pyrimidine-2,4-dione derivative 21a: A potent and orally bioavailable gonadotropin-releasing hormone receptor antagonist” (Eur J Med Chem, 2022).)
